PMC6648895
No constants are given. Whether binding was seen depends on the method and setting. In cells and extracts the contact can be indirect. Here binding means that the protein was enriched with, or labelled near, the bait; the list need not be complete. For some assays here: A no says only that the protein was not detected with the bait. Blank lines part the entries; values can stand above or below the molecule they belong to.

Protein sequences, listed by entry. Tags and fused reporters are not part of them.
UniProt P25293: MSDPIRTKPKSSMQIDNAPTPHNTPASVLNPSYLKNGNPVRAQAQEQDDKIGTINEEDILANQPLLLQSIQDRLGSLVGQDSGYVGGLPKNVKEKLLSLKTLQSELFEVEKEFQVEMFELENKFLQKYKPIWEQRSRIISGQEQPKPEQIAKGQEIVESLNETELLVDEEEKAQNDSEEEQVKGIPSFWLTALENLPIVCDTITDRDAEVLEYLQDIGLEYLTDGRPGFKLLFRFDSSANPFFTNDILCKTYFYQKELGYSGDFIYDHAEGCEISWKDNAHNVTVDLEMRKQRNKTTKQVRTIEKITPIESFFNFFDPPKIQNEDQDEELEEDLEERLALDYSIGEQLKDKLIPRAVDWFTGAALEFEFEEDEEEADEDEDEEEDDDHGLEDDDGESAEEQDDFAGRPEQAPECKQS
UniProt Q02821: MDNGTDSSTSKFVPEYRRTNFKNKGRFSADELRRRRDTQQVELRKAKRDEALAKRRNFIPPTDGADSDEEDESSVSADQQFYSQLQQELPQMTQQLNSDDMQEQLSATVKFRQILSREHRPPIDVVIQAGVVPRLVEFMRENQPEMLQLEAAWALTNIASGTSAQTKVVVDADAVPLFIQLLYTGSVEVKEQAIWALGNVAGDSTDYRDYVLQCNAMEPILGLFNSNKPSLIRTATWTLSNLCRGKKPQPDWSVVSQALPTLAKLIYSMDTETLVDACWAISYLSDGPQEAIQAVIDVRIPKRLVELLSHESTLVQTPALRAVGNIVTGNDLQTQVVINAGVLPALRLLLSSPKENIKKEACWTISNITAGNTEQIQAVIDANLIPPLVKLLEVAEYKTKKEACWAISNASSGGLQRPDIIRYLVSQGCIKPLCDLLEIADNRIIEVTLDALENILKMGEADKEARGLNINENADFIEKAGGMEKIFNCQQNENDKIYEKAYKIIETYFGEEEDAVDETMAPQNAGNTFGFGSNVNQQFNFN
UniProt Q12692: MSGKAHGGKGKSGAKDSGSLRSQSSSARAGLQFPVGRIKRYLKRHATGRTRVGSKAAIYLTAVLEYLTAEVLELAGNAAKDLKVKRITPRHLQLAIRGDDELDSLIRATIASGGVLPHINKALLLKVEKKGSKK
UniProt P53067: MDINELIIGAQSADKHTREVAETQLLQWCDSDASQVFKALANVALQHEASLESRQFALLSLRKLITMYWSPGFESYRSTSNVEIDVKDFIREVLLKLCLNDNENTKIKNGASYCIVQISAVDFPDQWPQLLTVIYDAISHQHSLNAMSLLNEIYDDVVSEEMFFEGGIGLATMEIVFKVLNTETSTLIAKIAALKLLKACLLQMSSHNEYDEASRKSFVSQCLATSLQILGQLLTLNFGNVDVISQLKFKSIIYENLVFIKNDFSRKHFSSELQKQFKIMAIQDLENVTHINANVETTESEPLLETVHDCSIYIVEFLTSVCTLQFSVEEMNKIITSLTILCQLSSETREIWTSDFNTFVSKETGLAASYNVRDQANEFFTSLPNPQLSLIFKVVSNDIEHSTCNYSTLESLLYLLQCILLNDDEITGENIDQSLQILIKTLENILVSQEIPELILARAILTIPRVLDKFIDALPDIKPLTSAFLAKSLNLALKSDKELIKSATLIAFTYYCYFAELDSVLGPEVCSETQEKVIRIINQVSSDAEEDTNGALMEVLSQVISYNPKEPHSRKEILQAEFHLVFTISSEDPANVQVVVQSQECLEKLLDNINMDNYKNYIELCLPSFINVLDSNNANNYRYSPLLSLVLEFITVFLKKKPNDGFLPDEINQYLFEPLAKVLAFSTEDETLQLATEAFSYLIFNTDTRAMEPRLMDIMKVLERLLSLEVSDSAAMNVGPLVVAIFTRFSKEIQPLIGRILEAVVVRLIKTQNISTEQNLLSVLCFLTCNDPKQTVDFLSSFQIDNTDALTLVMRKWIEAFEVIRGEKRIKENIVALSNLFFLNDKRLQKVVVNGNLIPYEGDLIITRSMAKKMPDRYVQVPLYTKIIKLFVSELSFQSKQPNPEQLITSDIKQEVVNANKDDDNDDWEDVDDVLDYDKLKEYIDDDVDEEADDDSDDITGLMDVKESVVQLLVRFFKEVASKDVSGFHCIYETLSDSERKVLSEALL

Columns and labels:
Rps3-TAP (S. cerevisiae) = biological target: T1, Rps3-TAP (S. cerevisiae) (UniProt P05750); test: affinity purification with mass spectrometry; C-terminally TAP-tagged 40S r-protein as bait; tandem-affinity purification (IgG Sepharose, TEV elution, Calmodulin Sepharose) from yeast lysate in 50 mM Tris-HCl pH 7.5, 100 mM NaCl, 1.5 mM MgCl2, 0.1% NP-40, 1 mM DTT; label-free semi-quantitative LC-MS/MS, intensities plotted against the mean of all purifications
T1 sequence: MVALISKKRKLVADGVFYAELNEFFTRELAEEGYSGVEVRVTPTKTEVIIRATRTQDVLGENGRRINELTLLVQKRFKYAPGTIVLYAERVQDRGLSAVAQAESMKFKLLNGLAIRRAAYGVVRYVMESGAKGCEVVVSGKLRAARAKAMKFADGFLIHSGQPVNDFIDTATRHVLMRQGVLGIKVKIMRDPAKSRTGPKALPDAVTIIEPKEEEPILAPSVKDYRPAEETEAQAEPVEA

Nap1-TAP (S. cerevisiae) = Nap1-TAP (S. cerevisiae) (UniProt P25293); test: affinity purification with mass spectrometry; Nap1-TAP purified from a Nap1-TAP Rps6a-Flag yeast strain (standard TAP, and Rps6a-Flag depleted pool); LC-MS/MS of eluates and mass spectrometry of Coomassie-stained gel bands
[1] = biological target: T2, Rps6a-TAP (S. cerevisiae) (UniProt P0CX37); test: affinity purification with mass spectrometry; C-terminally TAP-tagged 40S r-protein as bait; tandem-affinity purification (IgG Sepharose, TEV elution, Calmodulin Sepharose) from yeast lysate in 50 mM Tris-HCl pH 7.5, 100 mM NaCl, 1.5 mM MgCl2, 0.1% NP-40, 1 mM DTT; label-free semi-quantitative LC-MS/MS, intensities plotted against the mean of all purifications
T2 sequence: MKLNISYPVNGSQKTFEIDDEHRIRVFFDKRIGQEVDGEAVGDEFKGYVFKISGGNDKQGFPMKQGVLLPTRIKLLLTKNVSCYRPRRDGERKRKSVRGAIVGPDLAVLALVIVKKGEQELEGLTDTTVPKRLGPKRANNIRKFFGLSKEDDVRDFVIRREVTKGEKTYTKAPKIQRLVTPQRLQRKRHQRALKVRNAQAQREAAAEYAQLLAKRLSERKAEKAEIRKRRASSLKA

[2] = biological target: Rps14b-TAP (S. cerevisiae) (UniProt P39516); test: as above

Molecule: Kap60 (from UniProt Q02821 1-542)
binding (Rps3-TAP (S. cerevisiae)): binds

Molecule: Htz1 (from UniProt Q12692 1-134)
binding (Nap1-TAP (S. cerevisiae)): binds

Molecule: Kap114 (from UniProt P53067 1-1004)
binding [1]: no binding

B5: Gin4 (enzyme, UniProt Q12263 1-1142)
chain: MAINGNSIPAIKDNTIGPWKLGETLGLGSTGKVQLARNGSTGQEAAVKVISKAVFNTGNVSGTSIVGSTTPDALPYGIEREIIIMKLLNHPNVLRLYDVWETNTDLYLVLEYAEKGELFNLLVERGPLPEHEAIRFFRQIIIGVSYCHALGIVHRDLKPENLLLDHKYNIKIADFGMAALETEGKLLETSCGSPHYAAPEIVSGIPYQGFASDVWSCGVILFALLTGRLPFDEEDGNIRTLLLKVQKGEFEMPSDDEISREAQDLIRKILTVDPERRIKTRDILKHPLLQKYPSIRDSKSIRGLPREDTYLTPLSESNSSIDATILQNLVILWHGRDPEGIKEKLREPGANAEKTLYALLYRFKCDTQKELIKQQQVKKRQSISSVSVSPSKKVSTTPQRRRNRESLISVTSSRKKPISFNKFTASSASSSNLTTPGSSKRLSKNFSSKKKLSTIVNQSSPTPASRNKRASVINVEKNQKRASIFSTTKKNKRSSRSIKRMSLIPSMKRESVTTKLMSTYAKLAEDDDWEYIEKETKRTSSNFATLIDEIFEYEKYEQIRKEKEELERKVREAKAREELERRRRKQEEKERARKLLEKEDLKRKQEELKKQIEIDISDLEQELSKHKEEKLDGNIRSISAPMENEEKNINHLEVDIDNILRRRNFSLQTRPVSRLDPGIMFSSPTEEVSPVEPKRTENERLTTEKKILETIRRSKFLGSSFNIDKELKLSKMEYPSIIAPQRLSEERVVSDSNDGYESLILPKDGNGVSQLKDSTATTAPVSDGRLRKISEIRVPQFTRKSRHFSESNKRLSVLSMYSTKESFTNLVDILKNGNLDVNNQQSQRIPTPRSADDSEFLFETVNEEAEYTGNSSNDERLYDVGDSTIKDKSALKLNFADRFNGSNEAKQTDNLHLPILPPLNGDNELRKQNSQEGDQAHPKIKSMIPESGSSSHTEKEEENEEKEEKKPEQHKQEEDQEKREKVVDDMEPPLNKSVQKIREKNAGSQAKDHSKDHLKEHKQDKNTAIGNGSFFRKFSKSSDKTMELYAKISAKQLFNGLEKLLRGWTQYGLKNIKSHPNNLTLTGKLSSDNIFSLRSTLFEVNIYPRGKMSVVQFKKVSGSFKAVKKLVNEVENVLNKEGVLQK
binding (Nap1-TAP (S. cerevisiae)): binds

Further lines, results first:

binding [1]: binds
Molecule: Nap1 (endogenous) (from UniProt P25293 1-417)

binding [2]: binds
B1: Kri1 (protein, UniProt P42846 1-591)
chain: MPRKKSAAKRAREQAKKEAAVPATDTATIKTSETSATTVKPAIEASKSYVPSEDEEEDEEEEEEEDDYGELITDEVENGINQVLDAIKNNKTDKLLDPKVKFFEDPESAAAKLANREGKHKPIYLKDYHRMNILSGDALKEDDEEYEHATVDGKQSFVSQQREEKTQLLNEIKSAFSDEENEESSGDEDDGFLKKKEPSTKKEGKNLPDPTVNEENFLEEFVNQQAWIPKKGDKVISLDLNNNEEDDEEFEDAAEKFENAYNFRYEDPNAAEIISYARSQATLRRSDDSSRRRKREEKRKIKEQIKAEKETALQKKKTKKLNKLTDILEQLTKEYGAEINADMVKKITDTLLKNDFKEEEWDNVVAELFNEEFYQQEGKPTWNEDDEIMGDFYADADGDDQTEEGEVEKEQKEEDEEEGPKRKKSKKEEKLQKKKEKRKVNELVENALEQNKLALIEEVEKEEEERKSRSRTKEEQDLKFRYREVSPESFGLTAREIFAADDTDLNEFIGLKKFAPYRSKELRAKDKRKVMKARRLREWRKKTFKNENGLAPVEAEAGEKDEDTILIPVEKASKSKHKRGHSHKHKGHQKK

binding (Nap1-TAP (S. cerevisiae)): binds
B2: Nba1 (protein, UniProt Q08229 1-501)
chain: MSEEREENGISRATLNTQRLSAMIDSLNNEKDDRLFPSPTTTRTMITEEKADQSDVFKPPSRLLRSPAGDVSLPPGDNRSSMISNYSGIIQEGVEVSYVVKNRQQTQERRTSKDSNSLYSLKEPVSKNELPSLPMLPSEATLTKHLSDNQSTKSNTNADEIVIKPVTNAKPVGRFNSNTSKKVEGRGSLKLLSSPLRQEKVMRSSIGSGNLASESGSSTYNTKFHQSIQEQLEEEEEGNVSDKLSIVSSVIPELYTTTNEAPKAINPIRSETNDYNPTIPPRSKDRPRSRLFIEEGDGEGDLLTEEILPTPVQPGGHYKNSSQISTVSEQKSESYYSAATSMPPEEETYLTRPLPSTPNEDSRVTSNLKRDDTLKAIHDRANHTSTSTNKQDDDMYEDIIEETPKKTKLKKDTKKKLNKKKSVKELRSFDIDTLNQLLSVTKGTLIGSEFAQLGMKIEEKRALERLVDSLSRLTADMVLDPDRYEEGLKRLDKATKALEGF

binding (Nap1-TAP (S. cerevisiae)): binds
B3: Kcc4 (enzyme, UniProt P25389 1-1037)
chain: MTVANTETHSAAKPSSTIGPWKLGETLGFGSTGKVQLAQHERTGHRTAVKVISKSIFNNNGNHSNDDSVLPYNIEREIVIMKLLSHPNVLSLYDVWETNNNLYLILEYAEKGELFNLLVDHGPLPEREAINCFRQIIIGISYCHALGIVHRDLKPENLLLDSFYNIKIADFGMAALQTDADLLETSCGSPHYAAPEIVSGLPYEGFASDVWSCGVILFALLTGRLPFDEENGNVRDLLLKVQKGQFEMPNDTEISRDAQDLIGKILVVDPRQRIKIRDILSHPLLKKYQTIKDSKSIKDLPRENTYLYPLADSNNHTSASIDDSILQNLVVLWHGRHADDIVSKLKENGTNKEKILYALLYRFKLDSVRGSNKKNRNKIKKTKKNKRSSTLSSSSSLLLNNRSIQSTPRRRTSKRHSREFSSSRKRSSFLLSSNPTDSSPIPLRSSKRITHINVASANTQATPSGVPNPHKRNSKKRSSKRLSYMPNTKRSSLTSKSLSNFTNLIDDDDWEYIEKDAKRTSSNFATLIDEIFEPEKFELAKREKAELQRKVQEAKRQSVNAQKINEDEFGSEVSDGMKELKKINDKVSSPLINYEFSQQELLQDIDTLLTNRYQLSSYTRPISRLDPGLTPVTETLPNNLKEKTALLQDTEKKIIETIRRSKFLGSLLNVRGGLSPGKSELAPIEESPIVSTTPLIYNDRMEPRRISDVEVPHFTRKSKHFTTANNRRSVLSLYAKDSIKDLNEFLIKEDPDLPPQGSTDNESRSEDPEIAESITDSRNIQYDEDDSKDGDNVNNDNILSDFPQGVGISQEYDMKDKNPNQSPISKSAEPTLVVKLPSLSSFQGKNASGLGLYQREPSKVTLPSLTSNNSSVGENIEDGAEKGTESEKIAASLSDDDLKEDNDKKDNDTVNAPTTVKKPPNSVLLKKFSKGKILELEIHAKIPEKRLYEGLHKLLEGWKQYGLKNLVFNITNMIITGKLVNDSILFLRSTLFEIMVLPNGDGRSLIKFNKKTGSTKTLTKLATEIQIILQKEGVLDK

binding (Nap1-TAP (S. cerevisiae)): binds weakly | binding [1]: binds weakly
B4: Kap123 (protein, UniProt P40069 1-1113)
chain: MDQQFLSQLEQTLHAITSGVGLKEATKTLQTQFYTQPTTLPALIHILQNGSDDSLKQLAGVEARKLVSKHWNAIDESTRASIKTSLLQTAFSEPKENVRHSNARVIASIGTEELDGNKWPDLVPNLIQTASGEDVQTRQTAIFILFSLLEDFTSSLSGHIDDFLALFSQTINDPSSLEIRSLSAQALNHVSALIEEQETINPVQAQKFAASIPSVVNVLDAVIKADDTMNAKLIFNCLNDFLLLDSQLTGNFIVDLIKLSLQIAVNSEIDEDVRVFALQFIISSLSYRKSKVSQSKLGPEITVAALKVACEEIDVDDELNNEDETGENEENTPSSSAIRLLAFASSELPPSQVASVIVEHIPAMLQSANVFERRAILLAISVAVTGSPDYILSQFDKIIPATINGLKDTEPIVKLAALKCIHQLTTDLQDEVAKFHEEYLPLIIDIIDSAKNIVIYNYATVALDGLLEFIAYDAIAKYLDPLMNKLFYMLESNESSKLRCAVVSAIGSAAFAAGSAFIPYFKTSVHYLEKFIQNCSQIEGMSEDDIELRANTFENISTMARAVRSDAFAEFAEPLVNSAYEAIKTDSARLRESGYAFIANLAKVYGENFAPFLKTILPEIFKTLELDEYQFNFDGDAEDLAAFADSANEEELQNKFTVNTGISYEKEVASAALSELALGTKEHFLPYVEQSLKVLNEQVDESYGLRETALNTIWNVVKSVLLASKVEPESYPKGIPASSYVNADVLAVIQAARETSMGNLSDEFETSMVITVMEDFANMIKQFGAIIIMDNGDSSMLEALCMQVLSVLKGTHTCQTIDIEEDVPRDEELDASETEATLQDVALEVLVSLSQALAGDFAKVFDNFRPVVFGLFQSKSKNKRSSAVGAASELALGMKEQNPFVHEMLEALVIRLTSDKSLEVRGNAAYGVGLLCEYASMDISAVYEPVLKALYELLSAADQKALAAEDDEATREIIDRAYANASGCVARMALKNSALVPLEQTVPALLAHLPLNTGFEEYNPIFELIMKLYQENSPVITNETPRIIEIFSAVFTKENDRIKLEKESTLGREENMERLKQFQTEEMKHKVIELLKYLNTTYNGIVAQNPVLAAVIA

binding (Rps3-TAP (S. cerevisiae)): binds
B6: Yar1 (protein, UniProt P46683 1-200)
chain: MGLHSEPLDQEDQDTIILDARAGDLDSLKDIFTTLVSPELLSTCKESESDSTALHMAAANGHIETVRYILETVSRANSAEDLKAFVNEVNKTGNTALHWASLNGKLDVVKLLCDEYEADPFIRNKFGHDAIFEAENSGKEEVETYFLKKYDVEPEDDEEDTQTEGKNSVQITKGTEIEQVTKEATEALREETEKLNINKD
